Patent publication US20060159639A1, “Pseudo body odor composition and perfume composition for inhibiting body odor” (priority 2003, published 2006)
For at least one compound, name, drawing or mass did not settle the structure.

Experiment: Suppression test of Experimental Example 1: masking and harmonizing effect in a cup, four expert panelists;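 for harmonizing: score 1 means in harmony 0 indefinite and −1 not in harmony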
Conditions: 200 μl pseudo body odor composition of Example 4 and 10 μl perfume on filter papers in sealed about 500 ml cup, after 30 minutes
Method: In the present invention, the selection of the above component (I), component (II) and component (III) was carried out as follows. That is, one of the pseudo body odor compositions mentioned above and a target fragrance component were mixed and left at room temperature for 30 minutes. Thereafter, evaluations of the masking and harmonizing effects to the acid odor were carried out by four expert panelists.
After 30 minutes, a hole of about 1 cm in diameter was formed in the aluminum foil and the investigations of masking effect and the harmonizing effect were carried out according to following evaluation criteria by four expert panelists.
3: Excellent in the masking.
2: Substantially excellent in the masking.
1: Slightly sensible of the body odor (sweat odor and armpit odor).
0: Sensible of the body odor (sweat odor and armpit odor) (insufficient in the masking)

## CC1COCc2cc3c(cc21)C(C)(C)C(C)C3(C)C (centres unmarked) [Galaxolide, Hexamethyl hexahydrocyclopentabenzopyran]
Scale 0-3
  Masking: 0.5 points
Scale −1 to 1
  Harmonizing: −1
